The nature of data set [1]: Removal of PFOA from digests by evaporation, residual PFOA by flow injection MS.
Data set [2] is described as follows: PFOA amount in SCX, HILIC, FSPE and ANX chromatography fractions by flow injection analysis.

Consider `O=C(O)C(F)(F)C(F)(F)C(F)(F)C(F)(F)C(F)(F)C(F)(F)C(F)(F)F` [PFOA, perfluorooctanoic acid], for which, in data set [1] (BSA digest, three cycles ethanol:ethylacetate:water:TFA, evaporation at 60° C., 760 Torr), the “PFOA amount in the BSA digest” value is “below detectable level”. Further, the “residual PFOA” value in data set [1] (OS digest, another three cycles, evaporation at 60° C., 760 Torr (Sample 1)) was “not detectable”; in data set [1] (OS membrane protein digest, 1 mg PFOA initially, three cycles reconstitution/evaporation under low pressure (Sample 2)), 12 µg. Further, the “residual PFOA as % of the initial amount” value in data set [1] (OS digest, three cycles under low pressure (Sample 2)) turned out to be 1.2%. Moreover, the “estimated PFOA amount” value in data set [2] (ANX, flow through (peak m), 200 μg PFOA loaded) was 141.2 µg; in data set [2] (ANX, washing 1 (peak n)), “below detection limit”; in data set [2] (ANX, washing 2 (peak o)), “below detection limit”; in data set [2] (FSPE, 70% methanol washing fraction (peak j)), 81.8 µg; in data set [2] (FSPE, 80% methanol washing fraction (peak k)), 22.9 µg; in data set [2] (FSPE, 100% methanol washing fraction (peak l)) it was 2.3 µg. Further, the “estimated PFOA amount” value in data set [2] (FSPE, flow through (peak i)) was “trace amount”; in data set [2] (HILIC, flow through (peak e), 200 μg PFOA loaded) it was 181.7 µg; in data set [2] (HILIC, low-organic elution fraction (peak h)), “below detection limit”; in data set [2] (HILIC, washing 1 (peak f)), “trace amount”; in data set [2] (HILIC, washing 2 (peak g)), “below detection limit”; in data set [2] (SCX, flow through (peak a), 200 μg PFOA loaded) it was 211.1 µg. Also, the “estimated PFOA amount” value was “trace amount” in data set [2] (SCX, high-salt elution fraction (peak d)); “below detection limit” in data set [2] (SCX, washing 1 (peak b)); “below detection limit” in data set [2] (SCX, washing 2 (peak c)). Further, in data set [2] (ANX, flow-through fraction), the “share of the PFOA loaded on the column found in the fraction” value came to 70%. Further, in data set [2] (FSPE, washing fraction 1, 70% methanol), the “share of the total PFOA loaded onto the column that was eluted” value was “over 40%”.

Values taken from US8921515B2, “Methods and compositions of preparation for proteome analysis” (Case Western Reserve University, priority 2011, dated 2014).
